These are yes or no findings as the source states them, for the method shown. In cells and extracts the contact can be indirect. Some results given as binding are weak or reduced against the parent protein; the word gives no strength.

Sequences of proteins named here, by UniProt entry; tags and fusion partners are left off.
UniProt Q9Y572: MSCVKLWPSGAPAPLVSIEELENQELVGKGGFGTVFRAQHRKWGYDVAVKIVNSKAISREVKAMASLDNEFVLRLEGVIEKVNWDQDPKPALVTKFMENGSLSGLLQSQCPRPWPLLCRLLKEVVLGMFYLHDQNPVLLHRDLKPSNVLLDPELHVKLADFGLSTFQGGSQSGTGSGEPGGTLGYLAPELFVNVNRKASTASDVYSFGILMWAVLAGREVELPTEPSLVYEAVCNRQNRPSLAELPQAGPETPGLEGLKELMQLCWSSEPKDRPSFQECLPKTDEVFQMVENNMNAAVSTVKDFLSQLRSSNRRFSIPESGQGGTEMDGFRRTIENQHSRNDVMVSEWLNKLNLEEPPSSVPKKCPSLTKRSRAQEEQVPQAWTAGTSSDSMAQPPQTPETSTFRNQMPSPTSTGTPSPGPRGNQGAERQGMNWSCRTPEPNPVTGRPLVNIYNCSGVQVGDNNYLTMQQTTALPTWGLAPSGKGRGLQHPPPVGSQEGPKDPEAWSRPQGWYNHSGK
UniProt Q13546: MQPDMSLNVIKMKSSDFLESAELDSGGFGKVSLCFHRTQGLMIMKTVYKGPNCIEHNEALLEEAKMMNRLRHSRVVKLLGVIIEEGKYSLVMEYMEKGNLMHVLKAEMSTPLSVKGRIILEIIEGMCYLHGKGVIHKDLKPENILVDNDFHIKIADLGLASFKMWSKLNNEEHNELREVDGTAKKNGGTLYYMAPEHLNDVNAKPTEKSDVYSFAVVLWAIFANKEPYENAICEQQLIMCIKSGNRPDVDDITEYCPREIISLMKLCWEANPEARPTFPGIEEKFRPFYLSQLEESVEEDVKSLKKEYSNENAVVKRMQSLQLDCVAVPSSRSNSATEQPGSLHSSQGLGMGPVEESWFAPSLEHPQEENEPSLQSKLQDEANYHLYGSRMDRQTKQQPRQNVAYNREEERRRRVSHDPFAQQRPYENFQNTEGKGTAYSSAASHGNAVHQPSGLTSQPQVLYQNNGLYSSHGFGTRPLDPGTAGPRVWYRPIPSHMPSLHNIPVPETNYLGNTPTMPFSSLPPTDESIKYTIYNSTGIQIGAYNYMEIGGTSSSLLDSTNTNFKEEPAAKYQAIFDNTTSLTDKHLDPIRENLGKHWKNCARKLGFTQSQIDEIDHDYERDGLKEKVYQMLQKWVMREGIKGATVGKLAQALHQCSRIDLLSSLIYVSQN

The target of this experiment is RIP3 (human (endogenous in SH-SY5Y)) (UniProt Q9Y572). Description: co-IP; endogenous proteins in SH-SY5Y lysate; antibody on Protein A/G magnetic beads, western blot; cells normal, OGD/R, OGD/R + NAC, Drp1-S616A or Drp1-S616D, CIRI-derived exosomes. In general terms: Immunoblotting shows a protein as a band on a membrane.

Take RIP1 (from UniProt Q13546 1-671): the binding entry was “binds”.
